From PMC5408348, “The biochemical properties of the two Arabidopsis thaliana isochorismate synthases” (Biochemical Journal, 2017)
No constants are given. Whether binding was seen depends on the method and setting. Sequences can lack the tags named with a protein.

Target: His6-AtICS2 (Arabidopsis thaliana isochorismate synthase 2, hexahistidine fusion, without the transit peptide) (Arabidopsis thaliana) (UniProt Q9M9V6)
Assay: SEC; HiLoad 16/60 Superdex 200 preparative grade column with standards; 50 mM Tris-HCl pH 8.0, 500 µM EDTA, 10% v/v glycerol, 1 mM DTT; 4°C; 0.5 ml/min; both purified

binding: no binding
B1: His6-AtICS2 (Arabidopsis thaliana isochorismate synthase 2, hexahistidine fusion, without the transit peptide) (enzyme, UniProt Q9M9V6 56-562)
chain: ADHKAPLGTVETRTLSTVPSPAAATERLITAVSDLKSQPPPFSSGIVRLQVPIEQKIGAIDWLHAQNEILPRSFFSRRSDSGRPDLLQDFSSDNGSSDHNPVSVAGIGSAVFFRDLDPFSHDDWRSIRRFLSSKSPLIRAYGGLRFDPTGKIAVEWEHFGSFYFTVPQVEFDEFGGSSMLAATVAWDNELSWTLENAIEALQETMLQVSSVIMRLRRESLGVIVVSKNHVPSEGAYYPAVNNALEIIKDKHSPLSKVVLARSSRIITDTDIDPIAWLARLQCEGQDAYQFCLQPPGAPAFIGNTPERLFHRKHLGVCSEALAATRPRGDSKVREMEIERDLLTSPKDDLEFSIVRENIREKLKTICDRVVVKPHKSVRKLARVQHLYSQLAGQLKREDDEFNILTALHPTPAVCGCPVEEARLLIKQIESFDRGMYAGPIGFFGGGESEFSVGIRSALVEKGLGALIYAGTGIVSGSNPSSEWNELELKISQFTKSLEHESALQPIN
